Literature values in patent US20090012052A1, “METHOD FOR TREATING ER+ BREAST CANCER” (Ore Pharmaceuticals Inc., priority 2006, published 2009).

Tested on: T47D
Details: read-out: IC50 for antiproliferative effect; estrogen-stimulated T47D cells; cited from earlier work

CC/C(=C(\c1ccccc1)c1ccc(OCCN(C)C)cc1)c1ccccc1 [tamoxifen]
IC50: 11.8 nM
